Laboratory results: PubChem BioAssay AID686943 (Drosophila RNAi Screening Center, 2013)
In all, the deposit lists about 23,000 reagents; below is an unselected part of those that have a named target and a result. 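Extra replicates exist only for a retested subset of genes; insulin dose and duration not given; both raised and lowered dpERK matter.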 A plus sign joins genes that one reagent is predicted to hit. Not given: the amount of reagent, the time to read-out.

Purpose: 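Fly genes whose loss alters ERK activation after insulin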 (primary screen)
System: Drosophila S2R+ haemocyte-like cells expressing YFP-tagged ERK (Rolled)
Knock-down reagent: long dsRNA against Drosophila genes
Challenge: insulin stimulation versus unstimulated cells; dose and duration not given
Measured: 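Per-plate z-scores of phospho-ERK immunostaining normalised to YFP-tagged ERK, measured with and without insulin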
Scale: replicate 1, z-score of dpERK with insulin and replicate 2, z-score of dpERK with insulin: higher = more active ERK per ERK-YFP after insulin; replicate 1, z-score of dpERK under basal conditions: higher = more basal active ERK per ERK-YFP; replicate 1, z-score of ERK-YFP with insulin: higher = more YFP-tagged ERK signal

The opening 2 entries, ahead of the listing:
gene | dsRNA | replicate 1, z-score of dpERK with insulin | replicate 2, z-score of dpERK with insulin | replicate 1, z-score of dpERK under basal conditions | replicate 1, z-score of ERK-YFP with insulin
CG42361 | DRSC04391 | -1.13 | 0.12 | -1.01 | 0.73
CG7091 | DRSC12944 | -0.97 | -0.15 | 0.03 | 1.22

The list itself, from the first entry:
gene | dsRNA | replicate 1, z-score of dpERK with insulin | replicate 2, z-score of dpERK with insulin | replicate 1, z-score of dpERK under basal conditions | replicate 1, z-score of ERK-YFP with insulin
CG42361 | DRSC04391 | -1.13 | 0.12 | -1.01 | 0.73
CG7091 | DRSC12944 | -0.97 | -0.15 | 0.03 | 1.22
CG7091 | DRSC16197 | -0.36 | 1.22 | 0.45 | 0.67
dpn (deadpan) | DRSC07605 | 0.47 | 0.99 | -0.19 | 0.25
CG8001 | DRSC08611 | 0.08 | 0.19 | 1.56 | 0.3
CG14840 | DRSC14964 | 0.28 | -1.58 | 0.46 | 1.37
PIG-U (Phosphatidylinositol glycan anchor biosynthesis class U) | DRSC02193 | -0.55 | 0.51 | -0.34 | 1.35
CG9304 | DRSC04538 | -0.88 | -0.44 | 0.7 | -0.19
CG14115 | DRSC10118 | -0.38 | -0.18 | -0.69 | 0.58
CG13877 + pyx | DRSC08347 | 0.82 | 0.71 | 0.27 | -0.15
Andorra | DRSC19475 | 0.61 | -0.13 | -0.05 | -0.23
Blos1 | DRSC05970 | 0.28 | 0.59 | 0.92 | -0.1
CG6602 | DRSC10673 | -0.51 | -0.38 | 0.79 | -0.33
ldd (lipid droplet defective) | DRSC20558 | 0.62 | 0.43 | -0.3 | 0.1
ldd (lipid droplet defective) | DRSC22696 | 0.15 | 0.25 | -0.95 | -0.13
CG5776 | DRSC02891 | 0.58 | 0.17 | -0.64 | 0.51
CG8300 | DRSC18426 | 0.12 | 0.53 | -1.51 | -0.71
CG42816 | DRSC11230 | -0.42 | 0.13 | -0.02 | 0.07
RpL7 (Ribosomal protein L7) | DRSC03417 | -3.19 | -0.87 | -3.57 | -2.49
mtm (myotubularin) | DRSC03576 | -0.77 | -1.4 | 0.77 | 1.07
CkIIalpha-i1 (CKII-alpha subunit interactor-1) | DRSC11115 | 0.84 | 0.54 | -0.75 | 0.43
ac (achaete) | DRSC18734 | -3.15 | -2.13 | -2.1 | 0.86
Dgp-1 | DRSC07400 | -0.14 | 0.61 | -0.97 | 0.56
